Results on six molecules are retold here after PMC8534263.

These are yes or no findings as the source states them, for the method shown. In cells and extracts the contact can be indirect. A result given as binding can be weak or reduced; the word gives no strength.

T1: Zonula occludens 2 (ZO-2) (dog (endogenous in MDCK)) (UniProt Q95168)
T1 sequence: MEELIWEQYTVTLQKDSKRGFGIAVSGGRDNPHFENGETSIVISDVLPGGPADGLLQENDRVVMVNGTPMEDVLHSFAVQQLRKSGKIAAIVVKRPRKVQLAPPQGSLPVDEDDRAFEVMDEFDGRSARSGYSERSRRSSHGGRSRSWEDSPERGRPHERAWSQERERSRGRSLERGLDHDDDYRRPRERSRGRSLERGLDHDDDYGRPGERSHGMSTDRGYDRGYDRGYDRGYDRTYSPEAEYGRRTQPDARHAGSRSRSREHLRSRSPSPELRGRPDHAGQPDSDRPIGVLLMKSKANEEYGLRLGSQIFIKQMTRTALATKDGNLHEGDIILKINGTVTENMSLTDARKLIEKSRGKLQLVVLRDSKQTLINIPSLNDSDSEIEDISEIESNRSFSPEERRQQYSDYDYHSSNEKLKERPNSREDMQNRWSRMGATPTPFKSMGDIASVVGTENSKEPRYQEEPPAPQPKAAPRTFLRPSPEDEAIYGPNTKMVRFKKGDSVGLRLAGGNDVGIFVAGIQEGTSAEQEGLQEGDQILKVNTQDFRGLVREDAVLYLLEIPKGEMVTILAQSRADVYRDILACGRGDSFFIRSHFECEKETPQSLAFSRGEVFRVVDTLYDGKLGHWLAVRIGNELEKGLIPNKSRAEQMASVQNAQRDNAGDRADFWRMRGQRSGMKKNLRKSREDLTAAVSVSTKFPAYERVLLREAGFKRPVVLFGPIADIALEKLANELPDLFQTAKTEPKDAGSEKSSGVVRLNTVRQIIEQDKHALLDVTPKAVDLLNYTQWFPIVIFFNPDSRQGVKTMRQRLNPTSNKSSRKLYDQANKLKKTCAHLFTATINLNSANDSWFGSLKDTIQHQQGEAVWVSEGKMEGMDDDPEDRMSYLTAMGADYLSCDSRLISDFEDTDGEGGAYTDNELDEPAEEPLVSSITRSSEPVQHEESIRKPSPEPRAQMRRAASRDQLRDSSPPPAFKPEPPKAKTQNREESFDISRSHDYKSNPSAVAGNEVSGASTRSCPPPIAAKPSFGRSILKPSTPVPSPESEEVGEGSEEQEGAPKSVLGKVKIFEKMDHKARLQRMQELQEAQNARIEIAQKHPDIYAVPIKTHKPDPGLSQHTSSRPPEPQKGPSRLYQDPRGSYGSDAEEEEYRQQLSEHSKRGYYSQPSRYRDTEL

B1: Zonula occludens 2 (ZO-2) (protein, UniProt Q95168 1-1174)
chain: MEELIWEQYTVTLQKDSKRGFGIAVSGGRDNPHFENGETSIVISDVLPGGPADGLLQENDRVVMVNGTPMEDVLHSFAVQQLRKSGKIAAIVVKRPRKVQLAPPQGSLPVDEDDRAFEVMDEFDGRSARSGYSERSRRSSHGGRSRSWEDSPERGRPHERAWSQERERSRGRSLERGLDHDDDYRRPRERSRGRSLERGLDHDDDYGRPGERSHGMSTDRGYDRGYDRGYDRGYDRTYSPEAEYGRRTQPDARHAGSRSRSREHLRSRSPSPELRGRPDHAGQPDSDRPIGVLLMKSKANEEYGLRLGSQIFIKQMTRTALATKDGNLHEGDIILKINGTVTENMSLTDARKLIEKSRGKLQLVVLRDSKQTLINIPSLNDSDSEIEDISEIESNRSFSPEERRQQYSDYDYHSSNEKLKERPNSREDMQNRWSRMGATPTPFKSMGDIASVVGTENSKEPRYQEEPPAPQPKAAPRTFLRPSPEDEAIYGPNTKMVRFKKGDSVGLRLAGGNDVGIFVAGIQEGTSAEQEGLQEGDQILKVNTQDFRGLVREDAVLYLLEIPKGEMVTILAQSRADVYRDILACGRGDSFFIRSHFECEKETPQSLAFSRGEVFRVVDTLYDGKLGHWLAVRIGNELEKGLIPNKSRAEQMASVQNAQRDNAGDRADFWRMRGQRSGMKKNLRKSREDLTAAVSVSTKFPAYERVLLREAGFKRPVVLFGPIADIALEKLANELPDLFQTAKTEPKDAGSEKSSGVVRLNTVRQIIEQDKHALLDVTPKAVDLLNYTQWFPIVIFFNPDSRQGVKTMRQRLNPTSNKSSRKLYDQANKLKKTCAHLFTATINLNSANDSWFGSLKDTIQHQQGEAVWVSEGKMEGMDDDPEDRMSYLTAMGADYLSCDSRLISDFEDTDGEGGAYTDNELDEPAEEPLVSSITRSSEPVQHEESIRKPSPEPRAQMRRAASRDQLRDSSPPPAFKPEPPKAKTQNREESFDISRSHDYKSNPSAVAGNEVSGASTRSCPPPIAAKPSFGRSILKPSTPVPSPESEEVGEGSEEQEGAPKSVLGKVKIFEKMDHKARLQRMQELQEAQNARIEIAQKHPDIYAVPIKTHKPDPGLSQHTSSRPPEPQKGPSRLYQDPRGSYGSDAEEEEYRQQLSEHSKRGYYSQPSRYRDTEL

The first test addresses T1, Zonula occludens 2 (ZO-2) (dog (endogenous in MDCK)). As to the kind of experiment: co-IP; immunoprecipitation of ZO-2 from sparse MDCK cells, Western blot of the partners; endogenous proteins.
Turning to SUN-1 (dog (endogenous in MDCK)), the binding entry was “binds”.

Take nesprin-3 (dog (endogenous in MDCK)): the binding entry was “no binding”.

lamin A (dog (endogenous in MDCK)): the binding result was “no binding”. Still for that read-out and setting: as for lamin C (dog (endogenous in MDCK)), the entry is “no binding”; as for nesprin-4 (dog (endogenous in MDCK)), “no binding”.

The target in another test is SUN-1 (dog (endogenous in MDCK)). As to the kind of experiment: co-IP; immunoprecipitation of SUN-1 or lamin B1 from sparse MDCK cells, Western blot of ZO-2; endogenous proteins.
Take B1: the binding result was “binds”.
